# For some assays here: The hits were mostly taken out for another list; the other results follow. Records with an inconclusive call do not appear. The list shows a part of the results, in another mix than the full data. Activity calls are given as the source filed them. The call rests on the fitted dose curve.
# Protein sequences, listed by entry. Tags and fused reporters are not part of them. Lines headed by an entry give the natural chain unless they say otherwise; changes in a name come on top.
# UniProt P11229: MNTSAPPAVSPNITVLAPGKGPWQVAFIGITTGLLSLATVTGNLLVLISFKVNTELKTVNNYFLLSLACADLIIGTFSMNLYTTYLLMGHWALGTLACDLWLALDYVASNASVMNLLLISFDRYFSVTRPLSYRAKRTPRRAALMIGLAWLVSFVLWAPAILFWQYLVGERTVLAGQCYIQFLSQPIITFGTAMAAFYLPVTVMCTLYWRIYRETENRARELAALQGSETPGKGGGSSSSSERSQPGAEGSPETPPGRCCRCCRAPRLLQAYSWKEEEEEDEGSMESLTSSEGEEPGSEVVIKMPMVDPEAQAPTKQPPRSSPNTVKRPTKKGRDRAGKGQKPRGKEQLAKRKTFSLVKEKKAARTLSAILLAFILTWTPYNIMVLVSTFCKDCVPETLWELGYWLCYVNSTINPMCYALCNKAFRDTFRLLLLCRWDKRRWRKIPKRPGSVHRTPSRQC
# Assays:
# [1] = biological target: Muscarinic acetylcholine receptor M1 (Homo sapiens) (UniProt P11229); assay: Cholinergic receptor muscarinic 1 (CHRM1) small molecule antagonists, cell-based qHTS assay (AID 1963588); details: CHRM1-CHO antagonist mode, calcium flux fluorescence; at 61.5 µM (top of the series); further: on the % scale 0 is the no-effect control and ±100 the full control effect; nearly all actives have a fitted effect of over 40% in size
# Outline: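 Compounds were tested at 15 concentrations in three independent runs. Dye-loaded CHRM1-CHO cells were exposed 5 min at room temperature before stimulation by acetylcholine added at 50nM. Intracellular calcium was read kinetically on FDSS for 3 min.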
# [2] = biological target: Muscarinic acetylcholine receptor M1 (Homo sapiens) (UniProt P11229); assay: Cholinergic receptor muscarinic 1 (CHRM1) small molecule agonists, cell-based qHTS assay (AID 1963589); details: CHRM1-CHO cells, agonist mode, calcium flux fluorescence; further: potency means the concentration at half of the fitted maximal effect; nearly all actives have a fitted effect of over 35% in size
# Outline: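 Cells were plated and incubated 18 h at 37 C/5% CO2, loaded with calcium dye for 1 h at 37 C, then treated with compounds in DMSO. Fluorescence was recorded kinetically at 1 sec intervals.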
compound,measurement,setting,value
CCC[CH2][Sn]([CH2]CCC)([CH2]CCC)[O]C(=O)c1ccccc1,"activity, negative = inhibition",[1],inactive: 63.9%
same,Potency,[2],active: 12.3 µM

# Reference: PubChem BioAssay (Tox21)
